Series [1] can be described thus: general procedure: hybrid (solid and solution phase) peptide synthesis; 2-CTC; TBTU / 6-Chloro HOBT / DIEA. Conditions: whole synthesis.
Series [2] can be described thus: general procedure: hybrid (solid and solution phase) peptide synthesis; 2-CTC resin; TBTU / 6-Chloro HOBT / DIEA. The following applies: coupling step.

Several values for one entry are separate records, joined by “and”; a condition that tells them apart may be missing. Equal values may be shown once. Plain letter strings leave the end groups untold.

Regarding Ac-WQEWEQKITALLEQAQIQQE, in series [1] (run 1), the crude yield is 54.1% and 30.1%.

KNEYELQKLDKWASLWEWF: the step yield in series [2] is given as 90.7%; in series [2] (% AN HPLC), 101%. Moreover, the “crude HPLC purity” value in series [2] (HPLC area normalisation (AN), UV at 262 nm) stood at 84.1%.

For the substance KNEYELQKLDKWASLWEW, in series [1], the crude yield is given as 89.8% and the difficulty met result is reported as “Kaiser test showed incomplete reaction”.

For the origin of these results see US7544665 (dated 2009).
